PubChem BioAssay AID504793, Drosophila RNAi Screening Center | 2011

Test: 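Genes required for cells to halt at G2/M after double-strand DNA breaks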 (primary screen)
System: Drosophila S2R+ cells
Reagents: long dsRNA against Drosophila genes, about 0.25 µg dsRNA per well
Timing: 4 days of dsRNA, then 4 hours of drug before read-out
Challenge: doxorubicin 0.5 µM for 4 hours to cause double-strand breaks, in cells also given a low, harmless dose of dsRNA against nbs to sensitise the assay
Read-out: 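Mitotic index as the number of phospho-histone H3-positive cells in each well following doxorubicin, given as raw counts without normalisation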
Scale: mitotic cells: higher = more cells in mitosis, weaker G2 arrest
Rule for the call: 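Genes are called active only when high mitotic counts were reproduced with independent dsRNAs and mitosis was checked for delay without damage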
Calls: active = confirmed in follow-up tests; inactive = not confirmed
The deposit covers about 23,000 reagents; below is a random part of those with a known target gene and a result. In the full data, 62 (0.27%) were called active. 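Calls come from follow-up tests whose scores are not deposited, so confirmed genes may have low counts here; counts are not normalised per plate.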 Raw values are not corrected between plates. The numbers tell different reagents against one gene apart. Names joined by + are all predicted targets of the reagent.

Silencing of IntS14 gave: mitotic cells, replicate 1 = 3; inactive.
CG13386 #1 scored inactive.
CG13386 #2 gave mitotic cells, replicate 1 = 2; inactive.
CG31882 scored mitotic cells, replicate 1 = 3; inactive.
CG5397 #1 showed mitotic cells, replicate 1 = 2; inactive.
Silencing of CG5397 #2 gave: mitotic cells, replicate 1 = 4; inactive.
For CG10654, the values are mitotic cells, replicate 1 = 1; inactive.
With knock-down of CG18268 + CG3014 the results were mitotic cells, replicate 1 = 2; inactive.
With knock-down of PPO1 the results were mitotic cells, replicate 1 = 4; inactive.
After knock-down of CG6693, the record shows mitotic cells, replicate 1 = 5; inactive.
Knock-down of Fdh resulted in: mitotic cells, replicate 1 = 3; inactive.

Not a retest: entries from further up.
CG13386 #1: activity call = inactive
CG13386 #2: mitotic cells, replicate 1 = 2; activity call = inactive

Next reagents:
Ino80 #1 gave mitotic cells, replicate 1 = 8; inactive.
Silencing of Ino80 #2 resulted in: mitotic cells, replicate 1 = 5; inactive.
Knock-down of Ino80 #3 gave: mitotic cells, replicate 1 = 4; inactive.
CG11378 #1 showed mitotic cells, replicate 1 = 6; inactive.
After knock-down of CG11378 #2, the record shows mitotic cells, replicate 1 = 3; inactive.
CG13501 showed mitotic cells, replicate 1 = 3; inactive.
h-cup #1 gave mitotic cells, replicate 1 = 9; inactive.
h-cup #2 showed mitotic cells, replicate 1 = 8; inactive.
After knock-down of Orct2 #1, the screen gave mitotic cells, replicate 1 = 10; inactive.
With knock-down of Orct2 #2, the record shows mitotic cells, replicate 1 = 9; inactive.
Against Or94b #1, the entry reads mitotic cells, replicate 1 = 8; inactive.
For Or94b #2 the deposit lists mitotic cells, replicate 1 = 2; inactive.
Knock-down of tgo #1 gave: mitotic cells, replicate 1 = 5; inactive.
tgo #2 scored mitotic cells, replicate 1 = 23; inactive.
After knock-down of CG5910, the screen gave mitotic cells, replicate 1 = 1; inactive.
Depletion of CG8646 came out at: mitotic cells, replicate 1 = 6; inactive.
For CG17931 + CG42446, the entry reads mitotic cells, replicate 1 = 9; inactive.
Depletion of CG4462 #1 gave: mitotic cells, replicate 1 = 3; inactive.
For CG4462 #2, the entry reads mitotic cells, replicate 1 = 9; inactive.
For narya, the values are mitotic cells, replicate 1 = 8; inactive.
Against Ilp4 #1, the values are mitotic cells, replicate 1 = 2; inactive.
Silencing of Ilp4 #2 resulted in: mitotic cells, replicate 1 = 6; inactive.
CG5989 gave mitotic cells, replicate 1 = 2; inactive.
